Results: PMC4982761
No constants are given. Whether binding was seen depends on the method and setting. Binding seen in cells or lysates may run through a third protein. Some entries that bind do so weakly or less than the wild type. For part of these data: Sequences can lack the tags named with a protein.

Protein sequences, listed by entry. Tags and fused reporters are not part of them.
UniProt P42582: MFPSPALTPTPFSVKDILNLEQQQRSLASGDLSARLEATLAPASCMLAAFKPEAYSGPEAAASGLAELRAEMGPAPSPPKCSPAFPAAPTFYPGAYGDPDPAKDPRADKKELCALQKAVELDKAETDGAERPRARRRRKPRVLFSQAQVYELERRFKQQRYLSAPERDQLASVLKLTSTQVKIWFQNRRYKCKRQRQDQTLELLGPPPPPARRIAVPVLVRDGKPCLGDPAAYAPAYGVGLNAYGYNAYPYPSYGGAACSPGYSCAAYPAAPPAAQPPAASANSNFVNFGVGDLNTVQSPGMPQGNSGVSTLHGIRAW
UniProt O70133: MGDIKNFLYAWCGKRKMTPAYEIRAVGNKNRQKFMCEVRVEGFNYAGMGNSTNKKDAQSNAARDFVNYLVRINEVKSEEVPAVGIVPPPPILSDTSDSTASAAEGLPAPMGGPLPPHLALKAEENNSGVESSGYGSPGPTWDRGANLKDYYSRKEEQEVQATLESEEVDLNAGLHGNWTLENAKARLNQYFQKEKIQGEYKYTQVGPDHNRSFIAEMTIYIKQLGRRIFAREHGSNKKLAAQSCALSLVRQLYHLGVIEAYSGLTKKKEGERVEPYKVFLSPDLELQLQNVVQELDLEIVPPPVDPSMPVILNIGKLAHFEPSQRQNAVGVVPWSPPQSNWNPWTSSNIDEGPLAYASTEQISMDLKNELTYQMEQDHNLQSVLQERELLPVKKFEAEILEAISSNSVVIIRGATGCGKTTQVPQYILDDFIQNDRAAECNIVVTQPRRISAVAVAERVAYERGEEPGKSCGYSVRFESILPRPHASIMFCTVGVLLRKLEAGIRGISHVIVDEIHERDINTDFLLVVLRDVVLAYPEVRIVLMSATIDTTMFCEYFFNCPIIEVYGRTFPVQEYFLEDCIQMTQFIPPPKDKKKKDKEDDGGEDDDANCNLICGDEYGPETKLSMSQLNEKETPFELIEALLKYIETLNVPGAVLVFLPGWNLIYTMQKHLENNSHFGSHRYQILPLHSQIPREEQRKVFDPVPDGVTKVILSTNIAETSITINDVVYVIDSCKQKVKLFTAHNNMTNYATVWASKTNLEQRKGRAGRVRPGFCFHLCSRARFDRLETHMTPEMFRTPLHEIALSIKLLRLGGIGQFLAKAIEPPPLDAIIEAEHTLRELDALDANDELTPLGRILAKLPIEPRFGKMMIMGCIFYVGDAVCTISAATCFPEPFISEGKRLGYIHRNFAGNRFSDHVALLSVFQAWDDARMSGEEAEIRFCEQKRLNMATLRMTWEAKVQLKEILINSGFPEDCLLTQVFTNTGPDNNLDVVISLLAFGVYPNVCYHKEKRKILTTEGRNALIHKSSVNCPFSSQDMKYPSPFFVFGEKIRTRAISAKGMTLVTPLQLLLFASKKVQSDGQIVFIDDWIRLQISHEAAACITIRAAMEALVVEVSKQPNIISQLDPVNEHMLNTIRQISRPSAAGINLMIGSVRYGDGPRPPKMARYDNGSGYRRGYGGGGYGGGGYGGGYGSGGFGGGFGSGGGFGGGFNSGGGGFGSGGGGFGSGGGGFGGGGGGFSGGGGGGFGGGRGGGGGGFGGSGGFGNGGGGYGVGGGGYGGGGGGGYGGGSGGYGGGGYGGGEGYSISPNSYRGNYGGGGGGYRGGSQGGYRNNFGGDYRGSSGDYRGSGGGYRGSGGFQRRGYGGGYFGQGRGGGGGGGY
UniProt A2AKX3: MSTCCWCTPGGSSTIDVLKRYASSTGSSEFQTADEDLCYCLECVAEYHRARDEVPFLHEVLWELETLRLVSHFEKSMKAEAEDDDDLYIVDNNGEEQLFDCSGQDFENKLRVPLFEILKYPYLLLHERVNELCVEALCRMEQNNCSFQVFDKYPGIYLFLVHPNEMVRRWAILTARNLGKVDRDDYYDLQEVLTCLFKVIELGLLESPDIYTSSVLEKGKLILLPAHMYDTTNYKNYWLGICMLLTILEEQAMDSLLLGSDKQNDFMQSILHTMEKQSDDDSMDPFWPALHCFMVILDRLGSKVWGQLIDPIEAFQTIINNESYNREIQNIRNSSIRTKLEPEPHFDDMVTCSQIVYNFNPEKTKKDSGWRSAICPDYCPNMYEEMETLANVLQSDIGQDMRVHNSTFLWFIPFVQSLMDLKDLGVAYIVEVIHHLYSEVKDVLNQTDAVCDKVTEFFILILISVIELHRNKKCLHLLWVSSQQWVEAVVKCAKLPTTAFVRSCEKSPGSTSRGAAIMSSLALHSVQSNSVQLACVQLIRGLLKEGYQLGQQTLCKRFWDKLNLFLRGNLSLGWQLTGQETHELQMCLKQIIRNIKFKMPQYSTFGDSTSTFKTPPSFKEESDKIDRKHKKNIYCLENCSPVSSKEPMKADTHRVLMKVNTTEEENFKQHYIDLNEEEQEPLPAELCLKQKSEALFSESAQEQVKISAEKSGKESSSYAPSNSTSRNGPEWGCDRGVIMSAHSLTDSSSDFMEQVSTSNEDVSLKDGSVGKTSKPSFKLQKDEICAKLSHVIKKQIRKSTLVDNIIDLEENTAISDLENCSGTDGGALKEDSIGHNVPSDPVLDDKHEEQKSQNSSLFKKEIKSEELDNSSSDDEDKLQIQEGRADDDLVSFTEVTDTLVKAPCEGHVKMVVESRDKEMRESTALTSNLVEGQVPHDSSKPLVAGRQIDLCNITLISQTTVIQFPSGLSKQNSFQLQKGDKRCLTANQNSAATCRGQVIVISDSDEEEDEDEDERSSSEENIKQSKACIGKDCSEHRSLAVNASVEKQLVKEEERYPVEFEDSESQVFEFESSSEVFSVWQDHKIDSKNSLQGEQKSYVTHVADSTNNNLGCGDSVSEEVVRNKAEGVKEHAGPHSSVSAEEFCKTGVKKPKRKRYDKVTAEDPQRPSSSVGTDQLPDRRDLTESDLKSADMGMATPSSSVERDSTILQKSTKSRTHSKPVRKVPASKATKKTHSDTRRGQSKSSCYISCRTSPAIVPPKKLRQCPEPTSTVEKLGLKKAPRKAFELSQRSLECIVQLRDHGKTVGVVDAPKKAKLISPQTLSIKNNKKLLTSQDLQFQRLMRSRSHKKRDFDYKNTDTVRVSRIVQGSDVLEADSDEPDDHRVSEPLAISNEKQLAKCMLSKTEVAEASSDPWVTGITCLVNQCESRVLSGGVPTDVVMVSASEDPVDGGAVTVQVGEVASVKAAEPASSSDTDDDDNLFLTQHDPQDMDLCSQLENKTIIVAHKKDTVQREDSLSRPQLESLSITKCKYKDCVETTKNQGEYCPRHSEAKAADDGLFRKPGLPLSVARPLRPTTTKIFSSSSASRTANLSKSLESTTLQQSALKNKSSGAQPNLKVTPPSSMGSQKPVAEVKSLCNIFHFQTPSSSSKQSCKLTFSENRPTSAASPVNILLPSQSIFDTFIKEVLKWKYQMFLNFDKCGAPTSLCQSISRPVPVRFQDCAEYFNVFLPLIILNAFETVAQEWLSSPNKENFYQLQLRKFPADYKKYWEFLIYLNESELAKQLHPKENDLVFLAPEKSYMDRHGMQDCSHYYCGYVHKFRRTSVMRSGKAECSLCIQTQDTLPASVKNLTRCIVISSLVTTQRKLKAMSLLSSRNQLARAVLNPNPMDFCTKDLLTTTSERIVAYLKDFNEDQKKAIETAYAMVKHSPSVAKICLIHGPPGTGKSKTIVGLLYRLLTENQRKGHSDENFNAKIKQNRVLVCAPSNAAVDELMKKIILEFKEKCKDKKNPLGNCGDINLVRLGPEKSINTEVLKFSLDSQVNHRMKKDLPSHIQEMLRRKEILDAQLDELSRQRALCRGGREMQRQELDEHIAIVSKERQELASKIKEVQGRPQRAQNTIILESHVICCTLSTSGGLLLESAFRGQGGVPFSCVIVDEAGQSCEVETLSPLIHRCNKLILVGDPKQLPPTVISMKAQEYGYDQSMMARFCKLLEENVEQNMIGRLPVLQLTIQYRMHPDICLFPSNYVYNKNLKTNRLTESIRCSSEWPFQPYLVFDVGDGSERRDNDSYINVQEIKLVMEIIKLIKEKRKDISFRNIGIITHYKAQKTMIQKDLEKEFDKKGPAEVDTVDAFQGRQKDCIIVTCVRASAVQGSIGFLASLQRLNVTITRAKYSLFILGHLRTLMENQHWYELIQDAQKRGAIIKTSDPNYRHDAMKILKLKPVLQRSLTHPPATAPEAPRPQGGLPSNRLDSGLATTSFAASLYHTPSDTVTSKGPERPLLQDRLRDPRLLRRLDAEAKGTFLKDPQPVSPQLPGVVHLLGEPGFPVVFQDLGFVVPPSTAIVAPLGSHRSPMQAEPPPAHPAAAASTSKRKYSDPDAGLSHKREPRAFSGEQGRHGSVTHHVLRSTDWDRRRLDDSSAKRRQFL

How the values were obtained:
[1] = biological target: Nkx2-5 (mouse (endogenous in E12.5 hearts)) (UniProt P42582); assay: co-IP; endogenous proteins immunoprecipitated with the indicated antibodies from nuclear extracts of E12.5 mouse hearts, Western blotting; in Figure 3D extracts exposed to 20 µg/ml EtBr or 50 µg/ml RNaseA
Flag-Xrn2 = biological target: T1, Flag-Xrn2 (UniProt Q9DBR1); assay: co-IP; HA-Nkx2-5, Flag-Xrn2 and their deletion mutants cotransfected into C3H10T1/2 cells; immunoprecipitated from nuclear extracts with M2 (Flag) or HA antibody; Western blotting
T1 sequence: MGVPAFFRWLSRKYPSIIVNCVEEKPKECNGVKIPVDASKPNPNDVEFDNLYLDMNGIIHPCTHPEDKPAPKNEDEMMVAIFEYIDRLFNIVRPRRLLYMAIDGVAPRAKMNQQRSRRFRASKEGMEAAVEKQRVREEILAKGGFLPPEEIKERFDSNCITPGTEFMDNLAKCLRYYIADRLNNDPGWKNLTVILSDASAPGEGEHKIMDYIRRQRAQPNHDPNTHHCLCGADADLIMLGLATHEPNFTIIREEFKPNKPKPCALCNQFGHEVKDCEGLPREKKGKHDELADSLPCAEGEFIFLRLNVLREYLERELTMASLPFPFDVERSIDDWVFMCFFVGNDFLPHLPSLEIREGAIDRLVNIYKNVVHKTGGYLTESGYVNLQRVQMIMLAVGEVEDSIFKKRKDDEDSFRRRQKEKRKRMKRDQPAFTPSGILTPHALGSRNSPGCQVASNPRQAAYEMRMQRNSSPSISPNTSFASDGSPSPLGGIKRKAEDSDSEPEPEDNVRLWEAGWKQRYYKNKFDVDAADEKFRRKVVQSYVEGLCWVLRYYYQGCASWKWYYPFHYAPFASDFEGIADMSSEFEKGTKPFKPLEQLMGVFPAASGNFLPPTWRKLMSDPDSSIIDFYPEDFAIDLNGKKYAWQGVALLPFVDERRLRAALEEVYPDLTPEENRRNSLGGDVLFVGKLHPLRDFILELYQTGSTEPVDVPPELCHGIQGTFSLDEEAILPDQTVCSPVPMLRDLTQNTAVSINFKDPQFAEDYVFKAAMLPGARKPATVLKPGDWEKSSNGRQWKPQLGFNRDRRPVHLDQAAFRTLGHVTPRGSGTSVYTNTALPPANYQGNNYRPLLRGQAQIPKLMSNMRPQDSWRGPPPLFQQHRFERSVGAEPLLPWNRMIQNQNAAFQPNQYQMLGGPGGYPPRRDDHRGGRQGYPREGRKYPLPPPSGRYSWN

| binding [1] | binding (Flag-Xrn2) | Substance |
| --- | --- | --- |
| no binding | – | Dhx9 (from UniProt O70133 1-1380) (enzyme) |
| – | binds | HA-Nkx2-5 (from UniProt P42582 1-318) |
| no binding | – | Senataxin (from UniProt A2AKX3 1-2646) (enzyme) |
